These results are taken from paper PMC7408393.

Sequences of proteins named here, by UniProt entry; tags and fusion partners are left off. Residues count along the entry.
UniProt P08581, 25-1390: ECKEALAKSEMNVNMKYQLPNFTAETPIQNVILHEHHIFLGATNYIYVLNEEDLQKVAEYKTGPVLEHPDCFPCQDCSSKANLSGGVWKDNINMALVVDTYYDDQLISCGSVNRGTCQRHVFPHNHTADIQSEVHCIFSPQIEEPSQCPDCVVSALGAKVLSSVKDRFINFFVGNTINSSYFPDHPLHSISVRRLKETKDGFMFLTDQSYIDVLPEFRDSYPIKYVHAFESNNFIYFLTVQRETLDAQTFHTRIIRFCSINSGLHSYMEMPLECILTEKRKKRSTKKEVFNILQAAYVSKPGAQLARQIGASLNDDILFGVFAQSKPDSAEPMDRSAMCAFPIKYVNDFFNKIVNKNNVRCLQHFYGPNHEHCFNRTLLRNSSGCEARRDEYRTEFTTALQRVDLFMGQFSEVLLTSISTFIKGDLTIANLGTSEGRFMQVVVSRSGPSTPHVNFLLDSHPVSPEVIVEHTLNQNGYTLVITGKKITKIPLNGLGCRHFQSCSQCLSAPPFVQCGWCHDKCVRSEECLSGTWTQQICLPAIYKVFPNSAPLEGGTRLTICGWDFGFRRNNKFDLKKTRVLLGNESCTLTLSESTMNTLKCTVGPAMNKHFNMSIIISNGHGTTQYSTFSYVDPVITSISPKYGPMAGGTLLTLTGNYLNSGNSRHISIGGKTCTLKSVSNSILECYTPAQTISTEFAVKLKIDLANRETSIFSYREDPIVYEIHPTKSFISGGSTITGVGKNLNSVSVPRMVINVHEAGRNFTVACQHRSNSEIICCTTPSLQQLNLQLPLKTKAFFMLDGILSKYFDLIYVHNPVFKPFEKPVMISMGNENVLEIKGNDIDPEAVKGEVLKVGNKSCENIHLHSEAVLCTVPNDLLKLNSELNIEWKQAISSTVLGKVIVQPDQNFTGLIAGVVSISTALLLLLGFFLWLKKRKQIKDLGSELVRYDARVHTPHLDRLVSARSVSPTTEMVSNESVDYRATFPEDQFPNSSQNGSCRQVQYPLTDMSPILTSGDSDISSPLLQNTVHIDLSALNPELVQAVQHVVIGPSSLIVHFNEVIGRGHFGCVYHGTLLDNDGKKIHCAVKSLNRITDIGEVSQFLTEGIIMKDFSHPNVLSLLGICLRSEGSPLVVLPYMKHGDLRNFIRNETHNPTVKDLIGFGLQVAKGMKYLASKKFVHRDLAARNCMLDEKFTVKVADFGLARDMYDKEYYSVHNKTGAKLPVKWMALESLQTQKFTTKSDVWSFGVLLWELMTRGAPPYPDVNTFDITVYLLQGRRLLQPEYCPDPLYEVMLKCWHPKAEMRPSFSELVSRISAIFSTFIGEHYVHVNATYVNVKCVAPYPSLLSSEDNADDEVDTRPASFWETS
UniProt P19338, whole entry: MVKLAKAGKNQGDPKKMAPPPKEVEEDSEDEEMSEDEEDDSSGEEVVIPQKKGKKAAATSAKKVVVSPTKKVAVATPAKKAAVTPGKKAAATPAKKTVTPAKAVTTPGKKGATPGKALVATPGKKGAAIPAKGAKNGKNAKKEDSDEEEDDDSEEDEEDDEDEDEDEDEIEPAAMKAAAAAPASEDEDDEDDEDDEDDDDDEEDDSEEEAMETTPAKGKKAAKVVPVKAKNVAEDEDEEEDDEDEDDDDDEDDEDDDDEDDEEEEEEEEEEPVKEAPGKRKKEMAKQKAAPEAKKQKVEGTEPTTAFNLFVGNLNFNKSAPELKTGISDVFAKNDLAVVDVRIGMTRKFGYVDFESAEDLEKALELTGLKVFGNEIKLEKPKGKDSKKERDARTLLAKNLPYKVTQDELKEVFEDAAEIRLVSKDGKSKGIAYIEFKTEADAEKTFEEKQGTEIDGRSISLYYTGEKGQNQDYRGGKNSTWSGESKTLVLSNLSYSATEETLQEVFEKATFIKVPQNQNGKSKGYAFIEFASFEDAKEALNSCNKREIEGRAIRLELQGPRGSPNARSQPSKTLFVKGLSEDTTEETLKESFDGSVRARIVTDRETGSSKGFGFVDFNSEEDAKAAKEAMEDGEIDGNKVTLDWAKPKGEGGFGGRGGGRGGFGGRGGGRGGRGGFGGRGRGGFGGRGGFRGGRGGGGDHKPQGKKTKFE

The exact form of at least one protein or probe is not confirmed. Results from cells or extracts need not show a direct contact. For some of these results: Negatives hold for the conditions tested.

Holding throughout (assay): pull-down, immunoblot
In general terms: In western blotting, separated proteins are transferred to a membrane and probed.

Series [1] concerns the target c-Met receptor (UniProt P08581). To be noted: MKN-45 lysate, multivalent aptamer on AuNS; 5' thiol (C6-S-S-C6, reduced), grafted on gold nanostructure (AuNS), about 222 per particle; apt-AuNS incubated with MKN-45 cell lysate, then immunoblot; protein in an extract; folded or branched DNA.
For series [2], the target named is nucleolin (UniProt P19338). To be noted: MKN-45 lysate, 5' thiol (C6-S-S-C6, reduced), grafted on gold nanostructure (AuNS), apt-AuNS incubated with MKN-45 cell lysate, then immunoblot, protein in an extract, folded or branched DNA.
Series [3] deals with c-Met:nucleolin complex. To be noted: MKN-45 lysate, c-Met detected on AuNS-N, attributed to its interaction with nucleolin; 5' thiol (C6-S-S-C6, reduced), grafted on gold nanostructure (AuNS), about 403 per particle; apt-AuNS incubated with MKN-45 cell lysate, then immunoblot; protein in an extract; folded or branched DNA.

Consider “ATCAGGCTGGATGGTAGCTCGGTCGGGGTGGGTGGGTTGGCAAGTCTGAT [anti-c-Met aptamer on AuNS (AuNS-C)]”, for which the binding result is recorded as “binds” in series [1] and “no binding” in series [2] (nucleolin only detected from AuNS-N, about 222 per particle).

Consider “TTTGGTGGTGGTGGTTGTGGTGGTGGTG [anti-nucleolin aptamer AS1411 on AuNS (AuNS-N)]”, for which the binding result was “binds” in series [3] and “binds” in series [2] (multivalent aptamer on AuNS, about 403 per particle).
